Screening data, single-dose tests

Chains of the proteins cited; added tags and fusions are not shown. Residues count along the entry.
UniProt P9WFT3, whole entry: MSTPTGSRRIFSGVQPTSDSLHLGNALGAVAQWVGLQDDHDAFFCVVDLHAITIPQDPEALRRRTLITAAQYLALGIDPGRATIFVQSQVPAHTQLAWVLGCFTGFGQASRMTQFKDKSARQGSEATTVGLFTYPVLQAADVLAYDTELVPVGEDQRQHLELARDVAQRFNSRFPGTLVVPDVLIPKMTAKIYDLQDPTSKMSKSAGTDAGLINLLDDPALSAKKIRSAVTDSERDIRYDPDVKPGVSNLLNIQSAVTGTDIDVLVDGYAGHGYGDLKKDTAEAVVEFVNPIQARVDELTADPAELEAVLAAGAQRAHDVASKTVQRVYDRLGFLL
UniProt Q8IDJ8, 1-583: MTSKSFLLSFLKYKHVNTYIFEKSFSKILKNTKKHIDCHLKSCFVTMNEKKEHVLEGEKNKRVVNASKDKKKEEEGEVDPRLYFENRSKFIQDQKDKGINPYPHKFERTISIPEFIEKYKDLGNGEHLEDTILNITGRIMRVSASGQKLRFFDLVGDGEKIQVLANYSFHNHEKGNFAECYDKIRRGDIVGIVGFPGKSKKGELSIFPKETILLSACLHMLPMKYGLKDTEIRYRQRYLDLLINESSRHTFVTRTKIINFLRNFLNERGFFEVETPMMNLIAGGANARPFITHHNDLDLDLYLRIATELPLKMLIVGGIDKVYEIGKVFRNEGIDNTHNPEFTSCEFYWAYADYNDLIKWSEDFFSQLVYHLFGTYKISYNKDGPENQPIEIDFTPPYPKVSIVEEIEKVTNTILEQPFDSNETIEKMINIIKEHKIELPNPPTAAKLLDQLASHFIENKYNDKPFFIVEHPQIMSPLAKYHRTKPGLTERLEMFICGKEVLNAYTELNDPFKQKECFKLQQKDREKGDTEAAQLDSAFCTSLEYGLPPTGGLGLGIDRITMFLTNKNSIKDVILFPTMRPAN
UniProt P9WNZ1, whole entry: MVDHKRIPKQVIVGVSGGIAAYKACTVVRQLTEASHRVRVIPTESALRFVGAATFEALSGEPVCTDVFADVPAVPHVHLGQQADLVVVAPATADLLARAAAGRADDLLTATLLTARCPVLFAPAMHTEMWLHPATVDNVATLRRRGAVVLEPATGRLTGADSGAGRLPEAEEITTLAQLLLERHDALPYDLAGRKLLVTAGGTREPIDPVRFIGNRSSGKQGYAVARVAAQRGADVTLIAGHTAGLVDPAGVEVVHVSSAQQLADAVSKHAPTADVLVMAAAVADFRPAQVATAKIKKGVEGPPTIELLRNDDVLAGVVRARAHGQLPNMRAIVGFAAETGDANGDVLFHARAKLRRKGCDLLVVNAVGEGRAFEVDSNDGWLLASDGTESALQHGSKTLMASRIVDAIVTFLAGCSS
UniProt P9WPC5, whole entry: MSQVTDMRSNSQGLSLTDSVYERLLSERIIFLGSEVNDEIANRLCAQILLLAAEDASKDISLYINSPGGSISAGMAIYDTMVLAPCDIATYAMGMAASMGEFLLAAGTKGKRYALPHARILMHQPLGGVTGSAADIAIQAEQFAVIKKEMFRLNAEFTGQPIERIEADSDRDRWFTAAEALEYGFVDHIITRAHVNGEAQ
UniProt P9WPC3, whole entry partner: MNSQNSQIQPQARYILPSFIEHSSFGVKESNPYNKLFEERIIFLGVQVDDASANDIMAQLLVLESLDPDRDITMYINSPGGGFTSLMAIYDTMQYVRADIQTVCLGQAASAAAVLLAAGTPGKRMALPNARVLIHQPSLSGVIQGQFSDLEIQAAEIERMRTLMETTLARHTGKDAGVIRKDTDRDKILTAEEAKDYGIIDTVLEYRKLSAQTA
UniProt Q4DA54, 1-478: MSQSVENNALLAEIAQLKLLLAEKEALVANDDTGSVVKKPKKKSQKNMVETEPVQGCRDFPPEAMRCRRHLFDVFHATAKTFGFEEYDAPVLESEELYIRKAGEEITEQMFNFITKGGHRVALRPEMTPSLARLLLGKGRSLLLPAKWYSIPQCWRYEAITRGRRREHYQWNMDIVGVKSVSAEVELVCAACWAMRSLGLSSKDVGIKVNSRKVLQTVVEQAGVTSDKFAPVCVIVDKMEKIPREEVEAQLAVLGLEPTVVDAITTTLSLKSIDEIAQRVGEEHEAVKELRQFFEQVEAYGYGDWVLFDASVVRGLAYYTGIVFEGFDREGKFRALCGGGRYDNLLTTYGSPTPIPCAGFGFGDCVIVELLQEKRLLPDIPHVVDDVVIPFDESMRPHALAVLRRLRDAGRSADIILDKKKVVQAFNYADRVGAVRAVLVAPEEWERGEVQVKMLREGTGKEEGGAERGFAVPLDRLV

The values are deposited in ChEMBL (CHEMBL3988442, “University of Dundee, Small-Polar-MMV Screening Library” (2021)).

Results are given as percent effect.
The record does not define 0% and 100%; most values in the screen are far below 50% and negative numbers occur (in some assays of this library far below -100).
This is an unselected part of the compounds tested.
Two or more numbers in one place are separate tests of the same structure; such repeats can differ widely.
A dash means the value is not listed here; it may have been measured.

MtTrpRS: 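Enzyme assay of tryptophanyl-tRNA synthetase; the read-out is not stated. Target: Tryptophan-tRNA ligase, Mycobacterium tuberculosis (UniProt P9WFT3). Tested at 10 µM. Higher most likely means stronger inhibition; the record gives no direction and few retests gave an IC50. Size under these conditions: about 65,000 compounds, about 64 of them at 50% or above in at least one test.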
PfKRS1: 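Enzyme assay of the cytosolic lysyl-tRNA synthetase in 384-well plates, read by luminescence. Target: Lysine-tRNA ligase, Plasmodium falciparum 3D7 (UniProt Q8IDJ8). Compounds at 30 µM. Higher reads as stronger inhibition, judged from the few compounds that gave an IC50. Size under these conditions: about 69,000 compounds, about 49 of them at 50% or above in at least one test.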
CoaBC: 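Enzyme assay of CoaBC with a phosphate dye (Biomol Green) read at 650 nm. Target: Coenzyme A biosynthesis protein CoaBC, Mycobacterium tuberculosis (UniProt P9WNZ1). Tested at 30 µM. Direction is inferred from only a few compounds that gave an IC50; most scored high, so higher reads as stronger inhibition. Most strong results did not repeat in a second test. About 67,000 compounds were tested under these conditions; 0.06% (about 40) showed 50% or more at least once.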
ClpP1P2: 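ClpP1P2, Mycobacterium tuberculosis (UniProt P9WPC5 and UniProt P9WPC3). Protease assay of ClpP1P2, read by the AMC dye that it sets free. Tested at 50 µM. Direction is inferred from only a few compounds that gave an IC50; most scored high, so higher reads as stronger inhibition. Most other retested compounds had strongly negative values. Of about 69,000 compounds tested this way, about 10 (0.015%) reached 50% or more in at least one test.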
TcHisRS: 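Histidine-tRNA ligase, Trypanosoma cruzi CL Brener (UniProt Q4DA54). Enzyme assay of histidyl-tRNA synthetase; the read-out is not stated. Tested at 30 µM. Higher reads as stronger inhibition (inferred: compounds with an IC50 in retests scored well above the rest). Size under these conditions: about 69,000 compounds, about 31 of them at 50% or above in at least one test.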

compound	MtTrpRS	PfKRS1	CoaBC	ClpP1P2	TcHisRS
O=C(Cc1ccccc1)N1CC[C@H]2[C@@H]1CCC(=O)N2Cc1ccncc1	4.011%	5.582%	6.266%	-3.792%	4.878%
Cc1noc(C)c1C(=O)N(C)C(C)c1ccc(S(C)(=O)=O)cc1 (stereo unspecified)	3.366%	0.02389%	6.02%	-4.837%	13.1%
Cc1noc(C)c1CC(=O)N1CCCC(Cc2ccccn2)C1 (stereo unspecified)	-7.602%	0.8394%	-0.2628%	-0.9066%	6.818%
O=C(Nc1cccnc1N1CCSCC1)c1ccc2c(c1)CCO2	0.6274%	2.323%	5.34%	-5.128%	6.077%
CC(C)c1ccc(C(N)c2cccs2)cc1 (stereo unspecified)	-1.342%	-3.41%	-	5.141%	7.792%
CSCCC(NC(=O)C1CC1)C(=O)N(C)Cc1ccsc1 (stereo unspecified)	5.624%	-2.035%	0.8917%	4.312%	3.867%
Cn1ccnc1-c1noc(NCc2ccc(Cl)cc2)n1	0.698%	5.224%	-4.467%	-1.353%	8.671%
CN(C)c1cnn(CC(=O)N2CCN(Cc3cccs3)CC2)c(=O)c1	4.378%	-1.711%	0.1248%	-4.779%	5.102%
COc1c(C2CC(=O)Nc3[nH]ncc32)cc2c(c1OC)OCO2 (stereo unspecified)	-0.5833%	3.026%	1.459%	2.901%	4.663%
CN(C)C1CCCN(C(=O)NCCNC(=O)C2CCCC2)C1 (stereo unspecified)	1.19%	3.504%	3.182%	-2.292%	5.946%
CCNc1cc2c(nn1)CCN(C(=O)c1ccc(C(N)=O)cc1)C2	23.92%	-2.166%	6.717%	-29.97%	4.734%
Cc1noc([C@]23COC[C@H]2CN(S(=O)(=O)N(C)C)C3)n1	-2.928%	0.5371%	7.992%	1.449%	1.149%
Cc1noc(CCCC(=O)NC(C)c2cn(-c3ccccc3)nn2)n1 (stereo unspecified)	2.044%	5.081%	1.862%	4.24%	-4.183%
Cc1noc(C)c1CN1CCC(N(C)Cc2nnc(C3CC3)n2C)C1 (stereo unspecified)	-2.12%	2.594%	11.4%	-12.56%	2.326%
CC(C)c1cc(C(=O)N(c2ccc(F)cn2)C2CCOCC2)on1	4.339%	3.127%	-	-1.473%	5.732%
O=C(NC[C@H]1OC[C@@H](NC2CCC(F)(F)CC2)[C@@H]1O)C1CCCC1	-4.628%	1.513%	3.753%	-1.91%	1.087%
Cc1ccc(-c2cn[nH]c2C2CCCN(c3ccnc(C)n3)C2)cc1 (stereo unspecified)	-0.4617%	-1.611%	-6.509%	-1.329%	10.58%
CC(C)Sc1ccc(C(C)NC(=O)CNS(C)(=O)=O)cc1 (stereo unspecified)	5.448%	3.214%	0.4032%	6.19%	0.8403%
Cc1ccc(CN2CCCC(c3cncc(C)n3)C2)cn1 (stereo unspecified)	-	2.696%	1.456%	-8.056%	5.495%
CN1C[C@@H]2CN(C(=O)C3CC=CC3)C[C@@H]2C1=O	-2.124%	2.115%	-2.336%	8.17%	5.435%
COCC(=O)N1Cc2nccn2CC(Cn2ncccc2=O)C1 (stereo unspecified)	-9.663%	2.948%	-7.028%	-11.29%	10.48%
CCn1cc2c(n1)C(COCC1CC1)CN(C(=O)c1ccco1)C2 (stereo unspecified)	1.834%	9.992%	-	-2.59%	6.329%
CN(CC(=O)NC(C)(C#N)C1CC1)Cc1nnc(C2CC2)n1C (stereo unspecified)	-3.366%	1.103%	-4.497%	2.113%	4.712%
CN1CCN(C(=O)NC2CC2)Cc2cccnc21	-1.364%	-1.495%	-4.188%	14.64%	2.703%
c1ccc(-c2noc(CN3CCC(c4ccn[nH]4)CC3)n2)cc1	1.935%	-3.238%	10.02%	-6.282%	6.667%
CC(C)CC(C)NC1CCN(c2ccc(-c3cscn3)cc2)CC1 (stereo unspecified)	-1.459%	-1.871%	-0.2481%	-12.61%	-0.578%
NC(=O)N1CCC2(CCN(Cc3ccccn3)C2=O)C1 (stereo unspecified)	-0.5863%	5.852%	3.185%	7.758%	2.4%
Cn1cc(C2CCCN2C(=O)COCCc2ccccc2)cn1 (stereo unspecified)	-10.8%	0.5668%	8.929%	1.339%	6.433%
CN(Cc1n[nH]c2c1CCCC2)C(=O)c1cccc(CCC(C)(C)O)c1	-1.536%	6.896%	1.028%	9.708%	2.235%
CC(NC(=O)CNc1cc2c(cc1Cl)OCCO2)c1ccco1 (stereo unspecified)	0.4599%	5.643%	-3.037%	-11.13%	4.867%
O=C(Nc1cccnc1)[C@H]1CN(C2CCCC2)C[C@H]2OCC[C@@H]12	-6.295%	-1.989%	15.37%	2.086%	5.376%
CCC(CO)Nc1nc(C(F)F)nc2ccccc12 (stereo unspecified)	1.861%	1.257%	5.67% and 22.4%	-1.662%	6.736%
Cc1noc(C)c1CN1CCn2cc(CN3CCOCC3)nc2C1	-	3.571%	1.091%	5.61%	6.145%
CSCC(=O)NC1(c2cccc(Cl)c2)CC1	3.317%	0.5521%	-6.25%	-8.993%	3.627%
CS(=O)(=O)NC1CCCN(C(=O)Nc2cccnc2N2CCCC2)C1 (stereo unspecified)	-0.53%	3.43%	8.885%	0.779%	8.04%
CCc1nc(C(=O)N2CCN(Cc3ccc(Cl)cc3)CC2)c[nH]1	-2.886%	1.944%	-2.195%	-1.634%	2.597%
CCc1cc(=O)[nH]c(-c2ccc(NCCc3ccc(O)cc3)nc2)n1	-3.673%	2.972%	2.297%	-6.945%	5.844%
COCCN1CCC(CNC(=O)C2(NC(C)=O)CCCCC2)CC1	-4.479%	1.654%	3.629%	4.288%	0.8403%
O=C1N(c2ccc(F)cc2)Cc2n[nH]c(=O)n21	-2.051%	1.92%	-1.474%	-9.164%	7.407%
Cc1cc(C)c2c(c1)C(NC(=O)CSCc1ccncc1)CCO2 (stereo unspecified)	0.8474%	2.05%	7.258%	-3.117%	7.563%
Cc1nc(CN2CCn3cc(CNC(=O)C4CCC4)nc3C2)cs1	8.08%	5.458%	0.6345%	11.7%	3.784%
O=S(=O)(N1CCCCC1)N1CCc2nc(C3CCNCC3)ncc2C1	-0.2508%	1.24%	4.722%	-1.929%	9.189%
CS(=O)(=O)NCCC(=O)Nc1ccccc1N1CCc2ccccc21	1.002%	1.683%	4.75%	-0.08447%	13.69%
CS(=O)(=O)CCCSc1cccc(C#N)c1	2.304%	2.523%	7.348%	-6.564%	4.103%
COCCCNC(=O)c1cn(C(C)(C)C)c2ncccc12	-	3.93%	2.184%	4.894%	10.23%
Cc1noc(C)c1CC(=O)N1CCCC(Cn2ccnc2C)C1 (stereo unspecified)	-0.153%	1.919%	-1.882%	0.9868%	7.463%
CN(CC(=O)N1CCc2[nH]c3ccccc3c2C1)CC1OCCO1	-1.768%	3.193%	-1.094%	13.56%	13.86%
Cc1n[nH]c(C)c1-c1nccnc1CC1CCCN(C)C1 (stereo unspecified)	-	-1.241%	0.2451%	-3.591%	-4.255%
CN(C)S(=O)(=O)c1ccc(=O)n(CC2CCCO2)c1 (stereo unspecified)	-1.497%	1.286%	5.157%	4.299%	0.8929%